From patent US20200261534A1 (priority 2017, published 2020)

Assay: general procedure: Fmoc solid-phase peptide synthesis; TBTU/DIEA
Settings: whole synthesis

Sequence: AXKVVILKXATAYILS
- final HPLC purity: 95.11%
